Experimental data: PubChem BioAssay AID504804 (Drosophila RNAi Screening Center, 2011)

Purpose: 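dsRNAs that improve Kc cell survival under doxorubicin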 (primary screen)
System: Drosophila Kc cells
Reagent: long dsRNA against Drosophila genes, 0.5 µg dsRNA per well
Timing: 96 h (48 h knock-down, then 48 h drug)
Conditions: doxorubicin 5 µg/ml for 48 h, added 48 h after dsRNA
Measurement: 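Luminescent ATP counts per replicate, not normalised, reflecting viable cells after 48 h dsRNA knock-down followed by 48 h of 5 µg/ml doxorubicin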
Direction: raw ATP luminescence: higher = more viable cells, protection from doxorubicin
Rule for the call: 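z-score of 2 or more over plate mean in both duplicates, retained only when retests and separate dsRNAs confirm the protection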
In all, the deposit lists about 19,000 reagents; this is an unselected part of those with a known target gene and a result. In the full data, 47 (0.25%) are marked active. 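Signals are raw, not normalised; exact z-scores behind calls not deposited; actives needed confirmation, so some wells reaching 2 SD are inactive.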 A number with no mark means an inactive call. Reagents against one gene are numbered here. A plus sign joins genes that one reagent is predicted to hit. Reagent sequences are not shown.

Gene | reagent no. | raw ATP luminescence, replicate 1 | raw ATP luminescence, replicate 2
Trp1 | 1 | 38707 | 58630
CG13681 (retired record) | 1 | 1.17e5 | 1.64e5
CG13681 (retired record) | 2 | 1.29e5 | 1.61e5
CG13681 (retired record) | 3 | 68183 | 61563
CG13681 (retired record) | 4 | 70293 | 84170
CG13681 (retired record) | 5 | 66610 | 84507
CG13681 (retired record) | 6 | 48283 | 42307
ana | 1 | 52437 | 46410
cas | 1 | 61533 | 64540
PRL-1 | 1 | 50267 | 62923
Nplp3 | 1 | 71317 | 49313
Tsp | 1 | 93873 | 82737
Tsp | 2 | 38520 | 35933
Gle1 | 1 | 47097 | 49040
CG31115 | 1 | 2.33e5 | 2.33e5
CG3558 | 1 | 1.17e5 | 72897
CG3345 | 1 | 1.04e5 | 65757
Ir25a | 1 | 30243 | 33703
CG42662 + CG30080 | 1 | 1.10e5 | 1.19e5
Dysb | 1 | 37243 | 25200
Mid1 | 1 | 53297 | 49243
Mid1 | 2 | 43863 | 49813
Mid1 | 3 | 42297 | 45133
Teh1 | 1 | 58520 | 52183
prt | 1 | 57360 | 55440
siz | 1 | 67977 | 63550
siz | 2 | 69783 | 56097
siz | 3 | 79290 | 75033
CG2906 | 1 | 45230 | 74380
Ent1 | 1 | 1.13e5 | 74227
Sc2 | 1 | 60703 | 39790
CG18622 | 1 | 78800 | 68030
MESK2 + CG10494 | 1 | 56617 | 74110
CtsK1 | 1 | 56533 | 53933
PNKP | 1 | 59973 | 56317
CG31686 (retired record) | 1 | 2.08e5 | 2.65e5
CG5339 | 1 | 65753 | 62187
pim | 1 | 73907 | 46170
TwdlV | 1 | 69397 | 71193
CG10996 | 1 | 2.67e5 | 2.76e5
CG15200 | 1 | 3.29e5 | 3.71e5
fws | 1 | 72840 | 74553
Prp3 | 1 | 68520 | 64340
whd | 1 | 54637 | 54883
CG7506 | 1 | 47627 | 59823
nemy | 1 | 1.20e5 | 1.07e5
nemy | 2 | 95863 | 59330
CG3708 | 1 | 47180 | 47640
CG10298 | 1 | 60113 | 53120
Arp1 | 1 | 55010 | 50587
AANATL2 | 1 | 21800 | 20557
Tat | 1 | 3.37e5 | 3.07e5
RpL39 | 1 | 18950 | 30570
Xe7 | 1 | 1.07e5 | 61000
CG9263 | 1 | 77307 | 84760
mldr | 1 | 30640 | 43110
Ugt37A3 | 1 | 49063 | 46247
lola | 1 | 41550 | 51630
lola | 2 | 74920 | 1.08e5
lola | 3 | 71777 | 98777
lola | 4 | 48760 | 49060
lola | 5 | 1.08e5 | 1.20e5
lola | 6 | 55303 | 50337
lola | 7 | 35093 | 62943
lola | 8 | 54363 | 58400
lola | 9 | 55250 | 1.08e5
lola | 10 | 18177 | 23217
lola | 11 | 62637 | 72463
lola | 12 | 35380 | 66737
CG33301 | 1 | 42983 | 54247
Sgt | 1 | 80543 | 60637
Trissin | 1 | 83350 | 64420
Pdi | 1 | 47450 | 42027
sna | 1 | 70397 | 73673
CG3223 | 1 | 61097 | 61027
CG42789 | 1 | 1.38e5 | 1.59e5
Dlip2 | 1 | 60397 | 42320
Gs1l | 1 | 24607 | 30213
CG15696 | 1 | 60300 | 58900
tut | 1 | 1.28e5 | 1.35e5
CG10472 | 1 | 43587 | 42543
Sas10 | 1 | 37770 | 44630
Pde8 | 1 | 66187 | 53507
CG5359 | 1 | 26863 | 62443

5 entries from above, set out differently:
Tsp #1 → raw ATP luminescence, replicate 1 = 93873; raw ATP luminescence, replicate 2 = 82737
Tsp #2 → raw ATP luminescence, replicate 1 = 38520; raw ATP luminescence, replicate 2 = 35933
Gle1 → raw ATP luminescence, replicate 1 = 47097; raw ATP luminescence, replicate 2 = 49040
CG31115 → raw ATP luminescence, replicate 1 = 2.33e5; raw ATP luminescence, replicate 2 = 2.33e5
CG3558 → raw ATP luminescence, replicate 1 = 1.17e5; raw ATP luminescence, replicate 2 = 72897
